# Measurements from patent publication US4238390A (Hoffmann-La Roche Inc., priority 1979, dated 1980).
# Assay: peptide synthesis
# Settings: coupling step, HCl salt
substance,measurement,value
Boc-Tyr-D-Thr-Gly-Phe-Δ^3 Pro-NH2,step yield,53.2%
